The supplement of paper PMC10338343
± gives the standard deviation. The entries are a selection whose mix differs from that of the whole data set. The uncertainty is large for many entries.

Each sequence was assayed on MILI (PIWIL2) piRISC loaded with L1MC piRNA (26 nt) (assay: pre-steady-state target cleavage rate (min^-1); MIWI and MILI are mouse PIWI proteins and EfPiwi is from a freshwater sponge; tags in brackets are library labels; higher = faster piRNA-guided slicing of the target). Conditions: guide: L1MC piRNA 5'p-UAACUAAAUACUAUGCAAGCUGUAGG; auxiliary factor: 500 nM mouse GTSF1.
Protocol: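 Cleave-'n-Seq: a library of target RNAs (target site embedded in constant flanks, ACAGCATTCCGCGTTAGTGATATCCG... 5' flank; DNA-blocked outside the site) at 0.1 nM was incubated with 1 nM active mouse MILI or MIWI piRISC (synthetic 5'-monophosphorylated piRNA guide) with or without 500 nM mouse GTSF1 at 33 °C for 1 min to 16 h. Uncleaved targets were sequenced and normalised to non-target controls, and the pooled three trials were fitted to a burst-and-steady-state model to give the pre-steady-state cleavage rate (min^-1; k3 is constrained to at most 1e-4). Sequence is the target site only; target names encode pairing extent (gX:gY) and contiguous / 1-mismatch / 2-mismatch / bulge geometry. Fits with R² ≤ 0 are excluded.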

Row | Sequence | pre-steady-state target cleavage rate
1 | UCCUGGAUGUCGAACGUAAGUUUUUAGUAA | 0.000148 ± 0.053
2 | UCCUCCUACACGUUGCAUAGUAUUUAGUUA | 0.321 ± 0.021
3 | UCCUGGAUGACCUUGCAUUGUAUUUAGUUA | 0.0617 ± 0.0098
4 | UCCUGGAAGUGCUUGCAUAGUAUUUUCAAA | 0.00163 ± 0.0063
5 | UCCUGGAUCAGCUUGCAUAGUAUUUCGUUA | 0.147 ± 0.034
6 | UCCUGGAUGUCGAAGCAUAGUCAUUUAGUUA | 0.00219 ± 0.0048
7 | UCCUCCUACAGCUUGGAUAGUUUUUAGUUA | 0.0664 ± 0.0092
8 | UCCUGGUACUGCUUGCAUAGUUUUUAGUUA | 0.0403 ± 0.012
9 | UCCUGGUACAGCUAGCAUAGUAAUUAGUUA | 0.236 ± 0.041
10 | UCCUGGAUGUGCUUCCAUAGUAUUUUGUUA | 0.00222 ± 0.0065
11 | UCCUGGAUCAGCUUGCUAUGUAUUUAGUAA | 0.00621 ± 0.0032
12 | UCCUGGAUGAGCUUGCAUAGUUAAUACAAA | 0.000903 ± 0.0091
13 | UCCUGGAACAGCUUGCAUAGAAUUUAGAAA | 0.0206 ± 0.0083
14 | UCCUCCUACAGCUUGCUUAGUAUUUACUUA | 0.179 ± 0.02
15 | UCCUGGAUGUCCAUGCAUAGUAUUUAGAUA | 0.0163 ± 0.0062
16 | UCCUGGAUCAGCUUGGAUAGUAUUUAGAAA | 0.0109 ± 0.0051
17 | UCCUGGAUGUCCUUGCAUAGAUUUAGUUA | 0.00288 ± 0.0048
18 | UCCUGGUACAGCUUGCAUAGUAUUAAGUAA | 0.128 ± 0.035

Same assay, conditions: guide: L1MC piRNA 5'p-UAACUAAAUACUAUGCAAGCUGUAGG; auxiliary factor: none (no GTSF1)

Row | Sequence | pre-steady-state target cleavage rate
19 | UCCUGGAUGUCGAACGUAAGUUUUUAGUAA | 0.000461 ± 0.01
20 | UCCUGGUACAGCUUGCAUAGUAUUUUCAAA | 0.00238 ± 0.0036
21 | UCCUGGAUGACCUUGCAUUGUAUUUAGUUA | 0.00446 ± 0.0029
22 | UCCUGGUACAGCUUGCAUAGUUAAAUCAAA [g10:g24:cont:t1A] | 0.00102 ± 0.0065
23 | UCCUGGAAGUGCUUGCAUAGUAUUUUCAAA | 0.000731 ± 0.0069
24 | UCCUGGAUCAGCUUGCAUAGUUUUUAGUAA | 0.0013 ± 0.0063
25 | UCCUGGAUCAGCUUGCAUAGUAUUUCGUUA | 0.00354 ± 0.0024
26 | UCCUGGAUGUCGAAGCAUAGUCAUUUAGUUA | 0.00109 ± 0.0048
27 | UCCUCCUACAGCUUGGAUAGUUUUUAGUUA | 0.00384 ± 0.0019
28 | UCCUGGUACUGCUUGCAUAGUUUUUAGUUA | 0.00996 ± 0.0046
29 | UCCUGGUACAGCUAGCAUAGUAAUUAGUUA | 0.00483 ± 0.0027
30 | UCCUGGAUGUGCUUCCAUAGUAUUUUGUUA | 0.000401 ± 0.019
31 | UCCUGGAUCAGCUUGCUAUGUAUUUAGUAA | 0.00111 ± 0.0048
32 | UCCUGGAUGAGCUUGCAUAGUUAAUACAAA | 0.00107 ± 0.0062
33 | UCCUGGAACAGCUUGCAUAGAAUUUAGAAA | 0.00123 ± 0.0043
34 | UCCUCCUACAGCUUGCUUAGUAUUUACUUA | 0.00341 ± 0.0022
35 | UCCUGGAUGUCGAAGCAUAGUAUAUAGUAA | 0.00037 ± 0.015
36 | UCCUGGAUGUCCAUGCAUAGUAUUUAGAUA | 0.00223 ± 0.0036
37 | UCCUGGAUCAGCUUGGAUAGUAUUUAGAAA | 0.000731 ± 0.0065
38 | UCCUGGAUGUCCUUGCAUAGAUUUAGUUA | 0.000812 ± 0.0049
39 | UCCUGGUACAGCUUGCAUAGUAUUAAGUAA | 0.00168 ± 0.0047
40 | UCCUGCUACAGCUUGCAAUCUAUUUUCAAA | 0.000102 ± 0.029
